Legend:
[1] = system: Tat activity (Tat-induced viral transcription); experiment: microbe, parasite or virus in culture; type: cell-based, HIV-1; settings: Human immunodeficiency virus 1, 24 h, read-out: IC50 of Tat Activity
Experimental: (§1) (A) (Upper panel) Doxycycline (Dox)-inducible Tat-expressing bl-DTR cells cultured in 96-well plates treated with two-fold serial dilutions of each compound in the presence of Dox (50 ng/mL). At 24 h after treatment, the activity of firefly luciferase (F-Luc), indicating Tat activity, was determined as described in the Materials and Methods section. (Bottom panel) TZM-bl cells were treated with two-fold serial dilutions of the indicated compound and then infected with the HIV-1NL4-3 strain at a multiplicity of infection (MOI) of 1. At 24 h after infection, the viral infectivity and cell viability were determined as described in the Materials and Methods section. […] At 24 h after treatment, LTR promoter activity was determined via a Bright-Glo Luciferase Assay Kit. […] The mobility of biotinylated TAR RNA was detected by chemiluminescence.
The inhibitory effect of hit compounds on Tat-mediated transcription was determined using doxycycline (Dox)-inducible Tat-expressing TZM-bl cells that express the LTR-driven firefly luciferase (F-Luc) gene under the control of Tat upon Dox treatment, as described previously but with minor modifications. […] After 24 h, the inhibitory effect of the hit compounds on Tat activity was determined by measuring F-Luc activity using a Bright-Glo Luciferase Assay Kit (Promega, Madison, WI, USA). […]

HIV-1NL4-3 = experiment: HIV-1 infectivity in TZM-bl cells (LTR-driven F-Luc); type: cell-based
Experimental: as §1
To determine the inhibitory effect of hit compounds on HIV-1 infection, we used TZM-bl cells (also referred to as JC53BL-13), which express HIV-1 receptors and contain the LTR-driven F-Luc gene controlled by HIV-1 infection, as described previously but with some minor modifications. […] At 24 h after infection, the inhibitory effect of the hit compounds on infectivity was determined using the Bright-Glo Luciferase Assay Kit (Promega). The dose–response data are expressed as a relative percentage compared to the DMSO control (vehicle). […]

## CC[C@H](CO)Nc1nc(NCc2ccccc2)c2ncn(C(C)C)c2n1 [Seliciclib, reference compound]
[1]
  IC50: 2060 ± 409 nM
HIV-1NL4-3; Human immunodeficiency virus 1, TZM-bl, 24 h, read-out: IC50 of Infectivity
  IC50: 2400 ± 327 nM
HIV-1NL4-3; TZM-bl cells
  SI (selectivity index): >5.217
